Data taken from patent publication US20160115467A1 (Biogen, published 2016).
Results are given in words; binding and its absence hold for the method and conditions named. Binding calls can cover weak binding; strength is not graded here.

B1: 34D10 (antibody, V domains shown)
VH: EVKLVESGGGLVKPGGSLKLSCAASGFTFSAYAMSWVRQTPEKRLEWVASISSGGTTYYPDSVKRRFTISRDNARNILYLQMSSLRSEDTAMYYCTRGGDYGYALDYWGQGTSVTVSS
VL: ENVLTQSPAIMSASLGEKVTMSCRASSSVNYMYWYQQKSDASPKLWIYYTSNLAPGVPARFSGSGSGNSYSLTISSMEGEDAATYYCQQFSSSPWTFGGGTKLEIKR
notes: Mouse monoclonal from BALB/c hybridoma, tested as hybridoma supernatant (detected with anti-mouse IgG); also called monoclonal antibody 34D10; 34D10 antibody
B2: 36A8 (antibody, V domains shown)
VH: EVRLVESGGGLVKPGGSLKLSCAASGFTFSTYAMSWVRQTPEKRLEWVASINGGGSTYYPDSVKGRFTISRDNARNILYLQMRSLRSEDTAMYYCARGGDYGYALDYWGQGTSVTVSS
VL: ENVLTQSPAIMSASLGEKVTMNCRASSSVNYMYWYQQKSDASPKLWIFYTSNLAPGVPARFSGSGSGNSYSLTISSMEGEDAATYYCQQFSSSPWTFGGGSKLEIKR
notes: Mouse monoclonal from BALB/c hybridoma, tested as hybridoma supernatant; also called 36A8 antibody
B3: 35D1 (antibody, V domains shown)
VH: EVKLVESGGGLVKPGGSLKLSCAASGFTFSAYAMSWVRQTPEKRLEWVASISSGGTTYYPDSVKRRFTISRDNARNILYLQMSSLRSEDTAMYYCTRGGDYGYALDYWGQGTSVTVSS
VL: ENVLTQSPAIMSASLGEKVTMSCRASSSVNYMYWYQQKSDASPKLWIYYTSNLAPGVPARFSGSGSGNSYSLTISSMEGEDAATYYCQQFSSSPWTFGGGTKLEIKR
B4: 4B11 (antibody, V domains shown)
VH: EVKLVESGGGLVKPGGSLKLSCAASGFTFSSYAMSWVRQTPEKRLAWVASISSGGNIYFPDSVKGRFTISRDDARNILYLQMRSLRSEDTAMYYCARGGDYGYAMDYWGQGTSVTVSS
VL: ENVLTQSPAIMSASLGEKVTMNCRASSSVNYMYWYQQKSDASPKLWIFYTSNLAPGVPARFSGSGSGNSYSLTISSMEGEDAATYYCQQFSSSPWTFGGGSKLEIKR
notes: Mouse monoclonal from BALB/c hybridoma, tested as hybridoma supernatant; also called 4B11 antibody
B5: 1H6 (antibody, V domains shown)
VH: QVQLQQSGAELVRPGTSVKVSCKASGYAFTNYLIEWVKQRPGQGLEWIGVINPGSGGTNYNEKFKGKATLTADKSSSTAYMHLSSLTSDDSAVYFCARGRYEWYFDVWGAGTTVTVSS
VL: DIQMTQTTSSLSASLGDRVTISCRASQDITNYLNWYQRKPDGTVKLLIYYTSRLHSGVPSRFSGSGSGTDYSLTISNLEQEDIATYFCQQGYTLPYTFGGGTKLEIKR
notes: Mouse monoclonal from BALB/c hybridoma, tested as hybridoma supernatant; also called 1H6 antibody
B6: 38A8 (antibody, V domains shown)
VH: QVQLQQSGAELVRPGTSVKVSCKASGYAFTNYLIEWIKQRPGQGLEWIGVINPGSGGTNYNEKFKGKATLTADKSSSTAYMQLSSLTSDDSAVYFCARGRYEWYFDVWGAGTTVTVSS
VL: DIQMTQTTSSLSASLGDRVTISCRASQDISNYLNWYLQKPDGTVKLLIYYTSRLHSGVPSRFSGSGSGTDYSLSISNLEQEDIATYFCQQGYTLPYTFGGGTKLEIKR
notes: Mouse monoclonal from BALB/c hybridoma, tested as hybridoma supernatant; also called 38A8 antibody
B7: 38G8 (antibody, V domains shown)
VH: QVQLQQSGAELVRPGTSVKVSCKASGYAFTNYLIEWVKQRPGQGLEWIGVINPGSGGTNYNEKFKGKATLTADKSSSTAYMHLSSLTSDDSAVYFCARGRYEWYFDVWGAGTTVTVSS
VL: DIQMTQTTSSLSASLGDRVTISCRASQDITNYLNWYQRKPDGTVKLLIYYTSRLHSGVPSRFSGSGSGTDYSLTISNLEQEDIATYFCQQGYTLPYTFGGGTKLEIKR
B8: 18F7 (antibody, V domains shown)
VH: QVQLKESGPGLVAPSQSLSITCTVSGFSLTSYGVSWVRQPPGKGLEWLGIIWGDGSTNYHSVLKSRLSISKDNSKSQVFLKLNSLQTDDTATYYCAKQDFDVWGAGTTVTVSS
VL: DVQMIQSPFSLSASLGDIVTMTCQASQGTSINLNWFQQKPGKAPKLLIYGVSNLEDGVPSRFSGSRYGTDFTLTIGSLEDEDMATYFCLQHSYLPYTFGGGTKLEIKR
notes: Mouse monoclonal from BALB/c hybridoma, tested as hybridoma supernatant; also called 18F7 antibody
B9: 12B2 (antibody, V domains shown)
VH: QVQLQQSGAELTKPGASVKISCKATGYTFSSYWIEWVKQRPGHGLEWIGEILPGSGITKYNDKFKGKATFTADTSSNTAYMQLSSLTSEDSAVYSCARLISYYYAMDYWGQGTSVTVSS
VL: DIQMTQTTSSLSASLGDRVTISCRASQDISNYLNWYQQKPDGTVKLLIYYTSRLHSGVPSRFSGSGSGTDYSLTISNLEQEDIATYFCQQGNTLPPTFGGGTKLEIKR
notes: Mouse monoclonal from BALB/c hybridoma, tested as hybridoma supernatant; also called 12B2 antibody
B10: 28C2 (antibody, V domains shown)
VH: QVTLKASGPGIVQPSQTLSLTCSFSGFSLNTSGMGVGWIRQPSGKGLEWLAHIWWDDDKRYNPALKSRLTISKDTSNNQIFLKIASVDTADTATYYCARSHYYGTFYFDYWGQGTTLTVSS
VL: DVQITQSPSYLAASPGETITINCRASKSISKYLAWYQEKPGTTYKLLIYSGSTLQSGIPSRFSGSGSGTDFTLTISSLEPEDFAMYYCQQHIEYPWTFGGGTKLEIKR
notes: Mouse monoclonal from BALB/c hybridoma, tested as hybridoma supernatant; also called 28C2 antibody
B11: 9D6 (antibody, V domains shown)
VH: QVTLKESGPGILQPSQTLSLTCSFSGFSLSTSGMGVGWIRQSSGKGLEWLAHIWWDDDKRYNPTLKSRLTISKDTSNNQVFLKIANMDTADIATYYCARSHYNGTFYFDFWGQGITLTVSS
VL: DVQITQSPSYLAASPGETITINCRASKSISKYLAWYQEKPGKTNKLLIYSGSTLQSGIPSRFSGSGSGTDFTLTISTLEPEDFAMYYCQQHIEYPWTFGGGTKLEIKR
notes: Mouse monoclonal from BALB/c hybridoma, tested as hybridoma supernatant; also called 9D6 antibody
B12: 28F4 (antibody, V domains shown)
VH: EVQLVESGGDLVKPGGSLKLSCAASGFTFSNYGMSWVRQTPDKRLEWVATISSGGTYTYYPDSVKGQFTIFRDNAKNTLYLQMSSLKSEDTAMYYCTRRDYDYEGFAYWGQGTLVTVS
VL: DIVLTQSPATLSVTPGDSVSLSCRASQSISNNLHWYQQKSHESPRLLIKYASHSISGIPSRFSGSGSGTDFTLSINSVETEDFGMYFCQQSNNWPFTFGSGTKLEIKR
notes: Mouse monoclonal from BALB/c hybridoma, tested as hybridoma supernatant; also called 28F4 antibody

Biological target: human GPIIb/IIIa (αIIbβ3), purified protein (human)
Experiment: ELISA, binding to the α and/or β subunit of GPIIb/IIIa

binding, binds:
B1
B2
B3
B4
B5
B6
B7
B8
B9
B10
B11
B12

Biological target: human GPIIb/IIIa (αIIbβ3), purified protein (human)
Experiment: ELISA on GPIIb/IIIa, signal low relative to flow cytometry

binding, binds:
B8
B12
